Test results reported in patent US7825093B2 (priority 2006, dated 2010).
Some results were stated once for a whole list of compounds, not compound by compound.

Tested on: AT-EAE model
Design: species or system Lewis rats
Conditions: rat, in vivo, sc

## CC[C@H](C)[C@@H]1NC(=O)[C@@H](NC(=O)[C@H](CO)NC(=O)[C@@H](N)CCCNC(=N)N)CSSC[C@@H](C(=O)O)NC(=O)[C@H]([C@@H](C)O)NC(=O)CNC(=O)[C@@H]2CSSC[C@@H]3NC(=O)[C@H](CCC(N)=O)NC(=O)[C@H](Cc4ccccc4)NC(=O)[C@H](C)NC(=O)[C@H]([C@@H](C)O)NC(=O)[C@H](CSSC[C@H](NC(=O)[C@H](Cc4ccccc4)NC(=O)[C@H](CO)NC(=O)[C@H](CC(C)C)NC(=O)[C@H](CCCNC(=N)N)NC(=O)[C@H](Cc4ccc(O)cc4)NC(=O)[C@H](CCCCN)NC(=O)[C@H](CCSC)NC(=O)[C@H](CO)NC(=O)[C@H](Cc4c[nH]cn4)NC(=O)[C@H](CCCCN)NC3=O)C(=O)N[C@@H](CCCNC(=N)N)C(=O)N[C@@H](CCCCN)C(=O)N[C@@H]([C@@H](C)O)C(=O)N2)NC(=O)[C@H](CCCNC(=N)N)NC(=O)[C@H](CO)NC(=O)[C@H](CCCCN)NC(=O)[C@@H]2CCCN2C(=O)[C@H]([C@@H](C)CC)NC(=O)[C@H]([C@@H](C)O)NC(=O)[C@H](CC(=O)O)NC1=O [ShK, reference compound]
  EAE clinical severity score: ≥ 5.5
